Source: patent US12216122B2, “Compositions and methods relating to detection, inhibition, and imaging of indoleamine 2,3-dioxygenase 1 (IDO1)” (Regeneron Pharmaceuticals, Inc., priority 2019, dated 2025)
Read-outs that look alike come from different tables or passages of the source. For at least one compound, name, drawing or mass did not settle the structure. Bridge positions count the residues as written; N and C are the ends. Square brackets hold non-standard residues; d marks the D form. Triazole bridges read from a SMILES are 1,4-linked. Peptide text beside a SMILES is read from it. * marks the point of attachment. X3 = O=C(CSc1nonc1-c1noc(=O)n1-c1ccc(F)c(Br)c1)*; X1 = O=C(CSc1nonc1/C(=N/O)Nc1ccc(F)c(Br)c1)*; PEG8 = NCCOCCOCCOCCOCCOCCOCCOCCOCCC(=O)O; Lys(N3) = [N-]=[N+]=NCCCC[C@H](N)C(=O)O; Pra = C#CC[C@H](N)C(=O)O

Amino acid sequences for entries named in this document (tags omitted).
UniProt P14902, whole entry: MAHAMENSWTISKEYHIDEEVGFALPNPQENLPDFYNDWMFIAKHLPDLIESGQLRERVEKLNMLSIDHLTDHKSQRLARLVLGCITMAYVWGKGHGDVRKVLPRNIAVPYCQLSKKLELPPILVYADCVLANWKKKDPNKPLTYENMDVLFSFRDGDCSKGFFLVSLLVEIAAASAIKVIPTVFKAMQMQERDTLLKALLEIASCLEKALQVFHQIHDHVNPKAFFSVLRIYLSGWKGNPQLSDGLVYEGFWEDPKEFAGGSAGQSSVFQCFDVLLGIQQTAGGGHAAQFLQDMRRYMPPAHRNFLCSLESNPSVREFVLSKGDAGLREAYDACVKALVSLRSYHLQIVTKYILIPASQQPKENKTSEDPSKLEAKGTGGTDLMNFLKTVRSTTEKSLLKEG

Tests used:
[1] = target: T1, recombinant human IDO1 (Homo sapiens, UniProt P14902); experiment: IDO1 Fluorogenic Inhibitor Screening Assay (enzyme inhibition); format: biochemical
T1 construct: purchased BPS Biosciences 72037
Method: The IDO1 Fluorogenic Inhibitor Screening Assay Kit (72037, BPS Biosciences) was used to measure the enzyme inhibition of human IDO1 in the presence of macrocyclic peptide ligands. IDO1 catalyzes the conversion of the essential amino acid L-tryptophan (L-Trp) to N-formylkynurenine (NFK). In the assay, the test inhibitor and enzyme were added to a sample containing L-Trp substrate. After incubation for 1 h at room temperature, 20 μL Fluorescence Solution was added and incubated at 37° C. for 4 h to produce a fluorescent product. Activity was measured by reading sample fluorescence at λ=510 nm following excitation of the reaction product at λ=400 nm.

[2] = target: T2, His-tagged IDO1 human recombinant protein (Homo sapiens, UniProt P14902); experiment: IDO1 ELISA (Affinity Assay): sandwich ELISA, biotinylated ligand immobilized on NEUTRAVIDIN plate; settings: read-out: EC50, ELISA binding assay; PEG8 heterobiligand, hydroxyamidine free vs masked as oxadiazolone
T2 construct: purchased BPS Biosciences 71182
Method: Protocol: A black 96-well NEUTRAVIDIN® Coated High Binding Capacity plate (15510, Pierce) was coated with 2 μM biotinylated macrocyclic peptide ligand in TBS (25 mM Tris-HCl, 150 mM NaCl, pH 7.6) for 2 h at room temperature. The plate was aspirated and then washed with Wash Buffer (0.05% (v/v) TWEEN® 20 in PBS, 6×). His-tagged IDO1 human recombinant protein (71182, BPS Biosciences) was serially diluted in Wash Buffer (from 200 to 0 nM) and incubated in the designated microwells for 1 h at room temperature. Microwells were aspirated and subsequently washed with Wash Buffer (11×). To detect the bound IDO1 protein, Alkaline Phosphatase (AP)-conjugated Anti-6×HIS TAG® antibody [HIS-1] (ab49746, Abcam) was prepared at 1:10,000 dilution and added to the microwells for 1 h at room temperature. The plate was aspirated and washed with Wash Buffer (5×). ATTOPHOS® AP Fluorescent Substrate System (S1000, Promega) was employed to develop the microwells. Using an excitation wavelength of 430 nm, fluorescent emission at 535 nm was recorded by Beckman Coulter DTX880 photometer. Titration curves were fit using a four-parameter regression curve fitting program to determine EC50 values.
For these assays, a dilution series of His-tagged IDO1 human recombinant protein was captured using the macrocyclic peptide ligands immobilized on a NEUTRAVIDIN®-coated plate. […]

Structure (SMILES) | IC50 ([1]; linker composition series, read-out: IC50) [nM] | EC50 [2] [nM] | IC50 ([1]; PEG8 heterobiligand, hydroxyamidine free vs masked as oxadiazolone, read-out: IC50, IDO1 inhibition assay) [nM] | IC50 ([1]; effect of linker and of protection of the inhibitor, read-out: IC50) [nM]
CC(C)[C@H]1NC(=O)[C@@H](Cc2ccc(O)cc2)NC(=O)[C@@H](Cc2c[nH]c3ccccc23)NC(=O)[C@@H](NC(=O)CNC(=O)CNC(=O)CNC(=O)CNC(=O)CNC(=O)CNC(=O)CNC(=O)CSc2nonc2/C(=N/O)Nc2ccc(F)c(Br)c2)Cc2cn(nn2)CCCC[C@@H](C(N)=O)NC(=O)[C@@H](Cc2ccc(O)cc2)NC(=O)[C@@H](C)NC1=O [Inh-Gly7-wyvay] (X1-GGGGGGG[Pra][dW][dY][dV][dA][dY][Lys(N3)]-NH2; triazole 8-14) | 2670 | – | – | –
CC(C)[C@H]1NC(=O)[C@@H](Cc2ccc(O)cc2)NC(=O)[C@@H](Cc2c[nH]c3ccccc23)NC(=O)[C@@H](NC(=O)CCOCCOCCOCCOCCOCCOCCOCCOCCNC(=O)CSc2nonc2-c2noc(=O)n2-c2ccc(F)c(Br)c2)Cc2cn(nn2)CCCC[C@@H](C(N)=O)NC(=O)[C@@H](Cc2ccc(O)cc2)NC(=O)[C@@H](C)NC1=O [Protected-Inh-PEG8-wyvay] ({X3-PEG8}-[Pra][dW][dY][dV][dA][dY][Lys(N3)]-NH2; triazole 1-7) | – | 92 | > 10000 | > 10000
